Measured data: PubChem BioAssay AID686943 (Drosophila RNAi Screening Center, 2013)
Assay: 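Knockdowns that increase or decrease active ERK after insulin receptor stimulation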 (primary screen). Cell system: Drosophila S2R+ haemocyte-like cells expressing YFP-tagged ERK (Rolled). Reagents: long dsRNA against Drosophila genes. Treatment: insulin stimulation versus unstimulated cells; dose and duration not given. Measurement: 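Per-plate z-scores of phospho-ERK immunostaining normalised to YFP-tagged ERK, measured with and without insulin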. Direction: replicate 1, z-score of dpERK with insulin and replicate 2, z-score of dpERK with insulin: higher = more active ERK per ERK-YFP after insulin.
The deposit covers about 23,000 reagents; below is an unselected part of those with a known target gene and a result. 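Extra replicates exist only for a retested subset of genes; insulin dose and duration not given; both raised and lowered dpERK matter.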 Not all columns of the deposit are shown. No sequences are given here. Not stated in the record: the amount of reagent, the time to read-out.

nht (GeneID 34902)
- replicate 1, z-score of dpERK with insulin: 0.09
- replicate 2, z-score of dpERK with insulin: -0.87

Nop60B (GeneID 37873)
- replicate 1, z-score of dpERK with insulin: -0.36
- replicate 2, z-score of dpERK with insulin: -0.73

CG3744 (GeneID 42972)
- replicate 1, z-score of dpERK with insulin: 0.04
- replicate 2, z-score of dpERK with insulin: 0.02

nompC (GeneID 33768)
- replicate 1, z-score of dpERK with insulin: 0.13
- replicate 2, z-score of dpERK with insulin: -0.17

YME1L (GeneID 37636)
- replicate 1, z-score of dpERK with insulin: -0.49
- replicate 2, z-score of dpERK with insulin: -0.43

CG10317 (GeneID 41987)
- replicate 1, z-score of dpERK with insulin: -0.17
- replicate 2, z-score of dpERK with insulin: 0.22

Tsp42Ee (GeneID 35614)
- replicate 1, z-score of dpERK with insulin: -0.01
- replicate 2, z-score of dpERK with insulin: -0.84

GatA (GeneID 42283)
- replicate 1, z-score of dpERK with insulin: 0.05
- replicate 2, z-score of dpERK with insulin: 0.02

COX1 (retired record) (GeneID 192469)
- replicate 1, z-score of dpERK with insulin: 0.51
- replicate 2, z-score of dpERK with insulin: -0.36

mRpS23 (GeneID 318977)
- replicate 1, z-score of dpERK with insulin: 0.51
- replicate 2, z-score of dpERK with insulin: 0.11

dbr (GeneID 33161)
- replicate 1, z-score of dpERK with insulin: 0.71
- replicate 2, z-score of dpERK with insulin: 0.84

CG1943 (GeneID 40844)
- replicate 1, z-score of dpERK with insulin: 1
- replicate 2, z-score of dpERK with insulin: -0.82

CG8907 (GeneID 42050)
- replicate 1, z-score of dpERK with insulin: 0.1
- replicate 2, z-score of dpERK with insulin: -0.17

Dark (GeneID 36914)
- replicate 1, z-score of dpERK with insulin: 0.37
- replicate 2, z-score of dpERK with insulin: -0.21

Pcif1 (GeneID 40295)
- replicate 1, z-score of dpERK with insulin: 0.92
- replicate 2, z-score of dpERK with insulin: -0.05

CG31760 (GeneID 34642)
- replicate 1, z-score of dpERK with insulin: -0.69
- replicate 2, z-score of dpERK with insulin: -0.37

Recs1 (GeneID 41724)
- replicate 1, z-score of dpERK with insulin: -0.4
- replicate 2, z-score of dpERK with insulin: -1.51

PIG-G (GeneID 35685)
- replicate 1, z-score of dpERK with insulin: 1.44
- replicate 2, z-score of dpERK with insulin: 0.89

Galk (GeneID 39031)
- replicate 1, z-score of dpERK with insulin: 0.97
- replicate 2, z-score of dpERK with insulin: 0.25

sdk (GeneID 31017)
- replicate 1, z-score of dpERK with insulin: 0.14
- replicate 2, z-score of dpERK with insulin: -0.6

Irk2 (GeneID 42770)
- replicate 1, z-score of dpERK with insulin: 0.07
- replicate 2, z-score of dpERK with insulin: -0.81

Entries listed so far whose target name starts with G or g (2):
GatA (GeneID 42283)
- replicate 1, z-score of dpERK with insulin: 0.05
- replicate 2, z-score of dpERK with insulin: 0.02

Galk (GeneID 39031)
- replicate 1, z-score of dpERK with insulin: 0.97
- replicate 2, z-score of dpERK with insulin: 0.25
